# Laboratory results published in the supplement of paper PMC8728848.
# The list shows a part of the results.
# B1: Epa8 (Candida glabrata) (protein)
# chain: MGSSHHHHHHSSGLVPRGSHMASSRALSDYPLGCSPLLGTKLTPGLSMELYEYPLDNHGIGPHCWDPAYLNPEYPRTGFESHKLIGTAQNVMSLNFEHRTQDCHVEFSNLPASFNFPDQITLTNFTMLLYGYFKPKESGRYRFHMEADDLLLMNLGAGNAFDCCAHEATRNNLGDYIAYDIWAGTRKDVEVFLEKEVFYPLRLFFNNRDGRAALDFSYYLNGATEPGTDIPELLFSLPDGESCPAYI
# Legend:
# Assay in all cases: glycan array binding signal (z-score within array); higher = stronger binding
# Settings in all cases: glycan notation: IUPAC condensed, linker removed
# [1] = biological target: GlcNAc(b1-2)[GlcNAc(b1-4)]Man(a1-3)[GlcNAc(b1-4)][GlcNAc(b1-2)Man(a1-6)]Man(b1-4)GlcNAc(b1-4)GlcNAc
# In short: (§1)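 Columns mapping to the same glycan were averaged after glycan names were converted to IUPAC-condensed notation. The data come from 3228 arrays in the Consortium for Functional Glycomics database, limited to those with an available protein sequence. Binding is reported as a within-array Z-score averaged across arrays of one protein sequence and across linkers.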
# [2] = biological target: GlcNAc(b1-2)[GlcNAc(b1-4)]Man(a1-3)[GlcNAc(b1-4)][GlcNAc(b1-2)[GlcNAc(b1-6)]Man(a1-6)]Man(b1-4)GlcNAc(b1-4)GlcNAc
# In short: as §1
# [3] = biological target: GlcNAc(b1-2)[GlcNAc(b1-4)]Man(a1-3)[GlcNAc(b1-4)][GlcNAc(b1-2)[GlcNAc(b1-6)]Man(a1-6)]Man(b1-4)GlcNAc(b1-4)[Fuc(a1-6)]GlcNAc
# In short: as §1
# [4] = biological target: GlcNAc(b1-2)[GlcNAc(b1-6)]Man(a1-6)[GlcNAc(b1-2)Man(a1-3)]Man(b1-4)GlcNAc(b1-4)GlcNAc
# In short: as §1
# [5] = biological target: GlcNAc(b1-2)[GlcNAc(b1-6)]Man(a1-6)[GlcNAc(b1-2)Man(a1-3)]Man(b1-4)GlcNAc(b1-4)[Fuc(a1-6)]GlcNAc
# In short: as §1
# [6] = biological target: GlcNAc(b1-2)[GlcNAc(b1-6)]Man(a1-6)[GlcNAc(b1-4)][GlcNAc(b1-2)Man(a1-3)]Man(b1-4)GlcNAc(b1-4)GlcNAc
# In short: as §1
# GlcNAc(b1-3)Fuc = biological target: GlcNAc(b1-3)Fuc
# In short: as §1
# GlcNAc(b1-3)Gal = biological target: GlcNAc(b1-3)Gal
# In short: as §1
# [7] = biological target: GlcNAc(b1-3)Gal(b1-3)GalNAc
# In short: as §1
# GlcNAc(b1-3)Gal(b1-4)Glc = biological target: GlcNAc(b1-3)Gal(b1-4)Glc
# In short: as §1
# [8] = biological target: GlcNAc(b1-3)Gal(b1-4)GlcNAc
# In short: as §1
# [9] = biological target: GlcNAc(b1-3)Gal(b1-4)GlcNAc(b1-2)Man(a1-3)[GlcNAc(b1-3)Gal(b1-4)GlcNAc(b1-2)Man(a1-6)]Man(b1-4)GlcNAc(b1-4)GlcNAc
# In short: as §1
# [10] = biological target: GlcNAc(b1-3)Gal(b1-4)GlcNAc(b1-2)Man(a1-3)[GlcNAc(b1-3)Gal(b1-4)GlcNAc(b1-2)Man(a1-6)]Man(b1-4)GlcNAc(b1-4)[Fuc(a1-6)]GlcNAc
# In short: as §1
# [11] = biological target: GlcNAc(b1-3)Gal(b1-4)GlcNAc(b1-2)[GlcNAc(b1-3)Gal(b1-4)GlcNAc(b1-6)]Man(a1-6)[GlcNAc(b1-3)Gal(b1-4)GlcNAc(b1-2)Man(a1-3)]Man(b1-4)GlcNAc(b1-4)GlcNAc
# In short: as §1
# [12] = biological target: GlcNAc(b1-3)Gal(b1-4)GlcNAc(b1-3)Gal(b1-4)GlcNAc
# In short: as §1
# [13] = biological target: GlcNAc(b1-3)Gal(b1-4)GlcNAc(b1-3)Gal(b1-4)GlcNAc(b1-2)Man(a1-3)[GlcNAc(b1-3)Gal(b1-4)GlcNAc(b1-3)Gal(b1-4)GlcNAc(b1-2)Man(a1-6)]Man(b1-4)GlcNAc(b1-4)GlcNAc
# In short: as §1
# [14] = biological target: GlcNAc(b1-3)Gal(b1-4)GlcNAc(b1-3)Gal(b1-4)GlcNAc(b1-2)Man(a1-3)[GlcNAc(b1-3)Gal(b1-4)GlcNAc(b1-3)Gal(b1-4)GlcNAc(b1-2)Man(a1-6)]Man(b1-4)GlcNAc(b1-4)[Fuc(a1-6)]GlcNAc
# In short: as §1
# [15] = biological target: GlcNAc(b1-3)Gal(b1-4)GlcNAc(b1-3)Gal(b1-4)GlcNAc(b1-2)[GlcNAc(b1-3)Gal(b1-4)GlcNAc(b1-3)Gal(b1-4)GlcNAc(b1-6)]Man(a1-6)[GlcNAc(b1-3)Gal(b1-4)GlcNAc(b1-3)Gal(b1-4)GlcNAc(b1-2)Man(a1-3)]Man(b1-4)GlcNAc(b1-4)[Fuc(a1-6)]GlcNAc
# In short: as §1
# [16] = biological target: GlcNAc(b1-3)Gal(b1-4)GlcNAc(b1-3)Gal(b1-4)GlcNAc(b1-3)Gal(b1-4)GlcNAc(b1-2)Man(a1-3)[GlcNAc(b1-3)Gal(b1-4)GlcNAc(b1-3)Gal(b1-4)GlcNAc(b1-3)Gal(b1-4)GlcNAc(b1-2)Man(a1-6)]Man(b1-4)GlcNAc(b1-4)GlcNAc
# In short: as §1
# [17] = biological target: GlcNAc(b1-3)Gal(b1-4)GlcNAc(b1-3)Gal(b1-4)GlcNAc(b1-3)Gal(b1-4)GlcNAc(b1-2)Man(a1-3)[GlcNAc(b1-3)Gal(b1-4)GlcNAc(b1-3)Gal(b1-4)GlcNAc(b1-3)Gal(b1-4)GlcNAc(b1-2)Man(a1-6)]Man(b1-4)GlcNAc(b1-4)[Fuc(a1-6)]GlcNAc
# In short: as §1
# [18] = biological target: GlcNAc(b1-3)Gal(b1-4)GlcNAc(b1-3)Gal(b1-4)GlcNAc(b1-3)Gal(b1-4)GlcNAc(b1-2)[GlcNAc(b1-3)Gal(b1-4)GlcNAc(b1-3)Gal(b1-4)GlcNAc(b1-3)Gal(b1-4)GlcNAc(b1-6)]Man(a1-6)[GlcNAc(b1-3)Gal(b1-4)GlcNAc(b1-3)Gal(b1-4)GlcNAc(b1-3)Gal(b1-4)GlcNAc(b1-2)Man(a1-3)]Man(b1-4)GlcNAc(b1-4)[Fuc(a1-6)]GlcNAc
# In short: as §1
# [19] = biological target: GlcNAc(b1-3)Gal(b1-4)GlcNAc(b1-3)Gal(b1-4)GlcNAc(b1-3)Gal(b1-4)GlcNAc(b1-3)Gal(b1-4)GlcNAc(b1-2)Man(a1-3)[GlcNAc(b1-3)Gal(b1-4)GlcNAc(b1-3)Gal(b1-4)GlcNAc(b1-3)Gal(b1-4)GlcNAc(b1-3)Gal(b1-4)GlcNAc(b1-2)Man(a1-6)]Man(b1-4)GlcNAc(b1-4)GlcNAc
# In short: as §1
# [20] = biological target: GlcNAc(b1-3)Gal(b1-4)GlcNAc(b1-3)Gal(b1-4)GlcNAc(b1-3)Gal(b1-4)GlcNAc(b1-3)Gal(b1-4)GlcNAc(b1-2)Man(a1-3)[GlcNAc(b1-3)Gal(b1-4)GlcNAc(b1-3)Gal(b1-4)GlcNAc(b1-3)Gal(b1-4)GlcNAc(b1-3)Gal(b1-4)GlcNAc(b1-2)Man(a1-6)]Man(b1-4)GlcNAc(b1-4)[Fuc(a1-6)]GlcNAc
# In short: as §1
# [21] = biological target: GlcNAc(b1-3)Gal(b1-4)GlcNAc(b1-3)Gal(b1-4)GlcNAc(b1-3)Gal(b1-4)GlcNAc(b1-3)Gal(b1-4)GlcNAc(b1-2)[GlcNAc(b1-3)Gal(b1-4)GlcNAc(b1-3)Gal(b1-4)GlcNAc(b1-3)Gal(b1-4)GlcNAc(b1-3)Gal(b1-4)GlcNAc(b1-6)]Man(a1-6)[GlcNAc(b1-3)Gal(b1-4)GlcNAc(b1-3)Gal(b1-4)GlcNAc(b1-3)Gal(b1-4)GlcNAc(b1-3)Gal(b1-4)GlcNAc(b1-2)Man(a1-3)]Man(b1-4)GlcNAc(b1-4)[Fuc(a1-6)]GlcNAc
# In short: as §1
# [22] = biological target: GlcNAc(b1-3)Gal(b1-4)GlcNAc(b1-3)Gal(b1-4)GlcNAc(b1-3)GalNAc
# In short: as §1
# [23] = biological target: GlcNAc(b1-3)Gal(b1-4)GlcNAc(b1-3)GalNAc
# In short: as §1
# [24] = biological target: GlcNAc(b1-3)Gal(b1-4)GlcNAc(b1-3)[GlcNAc(b1-3)Gal(b1-4)GlcNAc(b1-3)]GalNAc
# In short: as §1
# [25] = biological target: GlcNAc(b1-3)Gal(b1-4)GlcNAc(b1-6)[Gal(b1-3)]GalNAc
# In short: as §1
# [26] = biological target: GlcNAc(b1-3)Gal(b1-4)GlcNAc(b1-6)[GlcNAc(b1-3)Gal(b1-3)]GalNAc
# In short: as §1
# [27] = biological target: GlcNAc(b1-3)Gal(b1-4)GlcNAc(b1-6)[GlcNAc(b1-3)]Gal(b1-4)GlcNAc
# In short: as §1
# GlcNAc(b1-3)GalNAc = biological target: GlcNAc(b1-3)GalNAc
# In short: as §1
# GlcNAc(b1-3)Man = biological target: GlcNAc(b1-3)Man
# In short: as §1
# [28] = biological target: GlcNAc(b1-3)[GlcNAc(b1-4)][GlcNAc(b1-6)]GlcNAc
# In short: as §1
# [29] = biological target: GlcNAc(b1-3)[GlcNAc(b1-6)]Gal(b1-4)GlcNAc
# In short: as §1
# [30] = biological target: GlcNAc(b1-3)[GlcNAc(b1-6)]GalNAc
# In short: as §1
# [31] = biological target: GlcNAc(b1-4)Gal(b1-4)GlcNAc
# In short: as §1
# GlcNAc(b1-4)GlcNAc = biological target: GlcNAc(b1-4)GlcNAc
# In short: as §1
# [32] = biological target: GlcNAc(b1-4)GlcNAc(b1-4)GlcNAc
# In short: as §1
binder,measurement,setting,value
B1,glycan array binding signal (z-score),[1],-0.683
same,glycan array binding signal (z-score),[2],-0.416
same,glycan array binding signal (z-score),[3],1.43
same,glycan array binding signal (z-score),[4],-0.508
same,glycan array binding signal (z-score),[5],-0.048
same,glycan array binding signal (z-score),[6],-1.37
same,glycan array binding signal (z-score),GlcNAc(b1-3)Fuc,-0.604
same,glycan array binding signal (z-score),GlcNAc(b1-3)Gal,-0.61
same,glycan array binding signal (z-score),[7],-0.123
same,glycan array binding signal (z-score),GlcNAc(b1-3)Gal(b1-4)Glc,-0.331
same,glycan array binding signal (z-score),[8],0.01
same,glycan array binding signal (z-score),[9],-0.041
same,glycan array binding signal (z-score),[10],0.016
same,glycan array binding signal (z-score),[11],0.251
same,glycan array binding signal (z-score),[12],-0.43
same,glycan array binding signal (z-score),[13],-0.033
same,glycan array binding signal (z-score),[14],1.09
same,glycan array binding signal (z-score),[15],3.86
same,glycan array binding signal (z-score),[16],0.826
same,glycan array binding signal (z-score),[17],1.65
same,glycan array binding signal (z-score),[18],3
same,glycan array binding signal (z-score),[19],-0.034
same,glycan array binding signal (z-score),[20],0.18
same,glycan array binding signal (z-score),[21],2.23
same,glycan array binding signal (z-score),[22],0.769
same,glycan array binding signal (z-score),[23],0.255
same,glycan array binding signal (z-score),[24],-0.142
same,glycan array binding signal (z-score),[25],0.62
same,glycan array binding signal (z-score),[26],0.167
same,glycan array binding signal (z-score),[27],-0.086
same,glycan array binding signal (z-score),GlcNAc(b1-3)GalNAc,-0.661
same,glycan array binding signal (z-score),GlcNAc(b1-3)Man,0.325
same,glycan array binding signal (z-score),[28],-0.13
same,glycan array binding signal (z-score),[29],0.492
same,glycan array binding signal (z-score),[30],-0.694
same,glycan array binding signal (z-score),[31],0.746
same,glycan array binding signal (z-score),GlcNAc(b1-4)GlcNAc,0.067
same,glycan array binding signal (z-score),[32],-0.364

# As a working copy, part of the list above.
binder,measurement,setting,value
B1,glycan array binding signal (z-score),GlcNAc(b1-4)GlcNAc,0.067
same,glycan array binding signal (z-score),[32],-0.364
